Laboratory results published in patent US7723523B2, “Tetrahydropyridothiophenes” (4SC AG, priority 2004, dated 2010).
Some of these results come from one statement about several compounds together.

Experiments:
[1] = tested on: RKO colon adenocarcinoma cells (RKOp27) arrested by expression of ectopic p27Kip1; test: Alamar Blue cell viability assay on RKOp27 cells arrested by Ponasterone A-induced p27Kip1 (cell cycle specific mode of action); type: cell-based, human; conditions: cells arrested by p27Kip1 induced with 10 μM Ponasterone A, 72 hours incubation, read-out: IC50 RKO p27 arrested
Procedure: To determine the cell cycle specific mode of action, subclones of RKO colon adenocarcinoma cells (RKOp27 or RKOp21 as described by Schmidt et al. in Oncogene 19, 2423-2429; 2000) are seeded into 96 well flat bottom plates at a density of 16000 cells per well in a volume of 50 μl per well in DMEM growth medium with 10% FCS containing 10 μM Ponasterone A. 24 hours after seeding 50 μl each of the compound dilutions in DMEM are added into each well of the 96 well plate. Each compound dilution is tested as quadruplicates. Wells containing untreated control cells are filled with 50 μl DMEM containing 1% DMSO. The cells are then incubated with the substances for 72 hours at 37° C. in a humidified atmosphere containing 5% carbon dioxide. To determine the viability of the cells, 10 μl of an Alamar Blue solution (Biosource) are added and the fluorescence is measured at an extinction of 544 nm and an emission of 590 nm. For the calculation of the cell viability the emission value from untreated cells is set as 100% viability and the emission rates of treated cells are set in relation to the values of untreated cells. Viabilities are expressed as % values. Viability is compared of proliferating cells grown in the absence of the inducer Ponasterone A, versus viability of cells arrested by the expression of ectopic p27Kip1 induced by Ponasterone A. The data of this experimental setting are summarized in table A (2nd column).

[2] = tested on: RKO (RKOp27) human colon adenocarcinoma cells; test: Alamar Blue cell viability assay, anti-proliferative/cytotoxic activity on proliferating RKOp27 cells; type: cell-based; conditions: absence of Ponasterone A, 72 hours incubation, read-out: IC50 RKO p27 proliferating
Procedure: The anti-proliferative/cytotoxic activity of the compounds described herein, can be tested on subclones of RKO (RKOp27) human colon adenocarcinoma cells (Schmidt et al., Oncogene 19, 2423-2429; 2000) using the Alamar Blue cell viability assay (described in O'Brien et al. Eur J Biochem 267, 5421-5426, 2000). The compounds are dissolved as 20 mM solutions in dimethylsulfoxide (DMSO) and subsequently diluted in semi-logarithmic steps. DMSO dilutions are further diluted 1:100 into Dulbecco's modified Eagle's medium (DMEM) containing 10% fetal calf serum to a final concentration twice as much as the final concentration in the test. RKO subclones are seeded into 96 well flat bottom plates at a density of 4000 cells per well in a volume of 50 μl per well. 24 hours after seeding 50 μl each of the compound dilutions in DMEM are added into each well of the 96 well plate. Each compound dilution is tested as quadruplicates. Wells containing untreated control cells are filled with 50 μl DMEM containing 1% DMSO. The cells are then incubated with the substances for 72 hours at 37° C. in a humidified atmosphere containing 5% carbon dioxide. To determine the viability of the cells, 10 μl of an Alamar Blue solution (Biosource) are added and the fluorescence is measured at an extinction of 544 nm and an emission of 590 nm. For the calculation of the cell viability the emission value from untreated cells is set as 100% viability and the emission rates of treated cells are set in relation to the values of untreated cells. Viabilities are expressed as % values.
The corresponding IC50 values of the compounds for anti-proliferative/cytotoxic activity are determined from the concentration-effect curves.
Representative IC50 values for anti-proliferation/cytotoxicity determined in the aforementioned assay are described in the table A (1st column), in which the numbers of the compound correspond to the numbers of the examples.

Q: For `CC(=O)N1CCc2c(sc(NC(=O)/C=C/c3ccccc3)c2C#N)C1` [Example 169, (E)-N-(6-Acetyl-3-cyano-4,5,6,7-tetrahydro-thieno[2,3-c]pyridin-2-yl)-3-phenyl-acrylamide], which IC50 [1] is on record?
A: ≥ 100 µM

Q: And the IC50 [2]?
A: ≤ 2 µM

Q: What does the source list for `COC(=O)N1CCc2c(sc(NC(=O)/C=C/c3cccnc3)c2C#N)C1` [Example 155, 3-Cyano-2-((E)-3-pyridin-3-yl-allanoylamino)-4,7-dihydro-5H-thieno[2,3-c]pyridine-6-carboxylic acid methyl ester]?
A: IC50 [1]: ≥ 100 µM; IC50 [2]: ≤ 2 µM

Q: Which results are given for `CCCC(=O)N1CCc2c(sc(NC(=O)/C=C/c3ccccc3)c2C#N)C1` [Example 170, (E)-N-(6-Butyryl-3-cyano-4,5,6,7-tetrahydro-thieno[2,3-c]pyridin-2-yl)-3-phenyl-acrylamide]?
A: IC50 [1]: ≥ 100 µM; IC50 [2]: ≤ 2 µM
